This passage reports AC50 results from PubChem BioAssay AID1487 (National Center for Advancing Translational Sciences (NCATS), 2009).

Values joined by “and” are separate entries in the source; they are usually repeats but may differ in a detail not shown here. Equal entries are not always repeated. The list shows a part of the results. These are further read-outs of the screen, such as a control signal, another cell line or another target. No call is given for them. Compounds called inactive in the main read-out are mostly missing here. The note in brackets gives the kind of curve behind each potency; many fits are weak.

The nature of the test: qHTS Assay for Modulators of Lamin A Splicing. Conditions: HeLa LMNA splicing GFP/RFP minigene ratio, 48 h. Put shortly: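 S3 HeLa cells stably expressing lamin A-EGFP splicing minigene plus DsRed2, 600 cells/well, 48 h compound exposure at 37C. Laser-scanning cytometry; analysed as GFP (500-530 nm)/RFP (575-640 nm) total intensity ratio; 0.5% DMSO vehicle.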
A general note: qHTS replaces the single test concentration by a dilution series.

[1] abbreviates: measured here: RFP viability control channel.
Where [2] appears, read: measured here: GFP splicing reporter channel.

What is called AC50 is the midpoint of the concentration-response curve, whichever way the signal moves.

For `CC(C)(C)n1nc2c(c1NC(=O)COc1ccc3ccccc3c1)CS(=O)(=O)C2`, the AC50 under setting [1] is 4.47 µM [falling, single point].

For the molecule `Cc1ccc(S(=O)(=O)N2CCN(C(C)C(=O)N3CCCc4ccccc43)CC2)cc1` (configuration not stated), the AC50 runs as follows: under setting [2], 35.5 µM [falling, single point]; under setting [1], 35.5 µM [falling, single point].

With `CC1=Nc2ccccc2/C1=C/c1sc(=N)n(-c2nccs2)c1O`, under setting [1], the AC50 was 35.5 µM [rising, partial curve].

Consider `CN1CCCN(C(c2ccccc2)c2ccc(Cl)cc2)CC1` (configuration not stated), for which the concentration at half-maximal activity (AC50) was 10 µM [falling, partial curve, poor fit] and 1.12 µM [falling, partial curve, poor fit] under setting [2]; 10 nM [rising, full curve, poor fit] and 44.7 nM [falling, full curve] under setting [1].

Consider `Cc1ccc(C(=O)C(C(=O)/C=C/c2ccccc2)=C2SCCCS2)cc1`, for which the AC50 under setting [1] is 35.5 µM [falling, single point].

On to `C=CCn1c(SCc2c(C)noc2C)nc2sc3c(c2c1=O)CCC(C)C3` (configuration not stated), for which the half-maximal activity concentration (AC50) under setting [2] is 1.12 µM [rising, partial curve, poor fit].

With `CCOC(=O)c1sc(SC)nc1N`, the AC50 under setting [1] was 0.0126 µM [rising, full curve, poor fit].

In the case of `O=C(Cc1ccccc1)N1CCC(c2nc(-c3ccc(F)cc3)no2)CC1`, the AC50 under setting [2] is 0.501 µM [rising, full curve, poor fit] and the AC50 under setting [1] is 17.8 µM [rising, partial curve].

As to `COc1ccc([N+](=O)[O-])cc1NC(=O)C(C)OC(=O)/C=C/c1ccco1` (configuration not stated), under setting [1], the AC50 is 20 µM [rising, single point].

As to `CCOC(=O)CSC1=Nc2ccccc2C2=NC(CC(=O)NCc3ccc4c(c3)OCO4)C(=O)N12` (configuration not stated), the AC50 under setting [1] was 0.0631 µM [rising, full curve, poor fit].

As for `c1ccc(CC2CCN(Cc3nc(-c4ccccc4)no3)CC2)cc1`, the AC50 runs as follows: under setting [2], 11.2 µM [rising, single point]; under setting [1], 15.8 µM [rising, single point].

As for `Clc1ccc(OCCOCCOc2cccc3cccnc23)c(Br)c1`, the AC50 under setting [1] is 17.8 µM [rising, partial curve].

With `Cc1ccc(OCC(=O)NNC(=O)C(=O)N2CCCC2)c(C)c1`, the AC50 was 0.126 µM [rising, full curve, poor fit] under setting [2] and 0.158 µM [rising, full curve] under setting [1].

Consider `Cc1ccc(C)c(NC(=O)Cn2nnc(-c3ccc(N4CCOCC4)cc3)n2)c1`, for which the half-maximal activity concentration (AC50) under setting [1] was 0.141 µM [rising, full curve, poor fit].

In the case of `Cc1ccc(C(=O)Nc2sc(Cc3ccc4c(c3)OCO4)c(C)c2C(N)=O)cc1`, under setting [1], the concentration at half-maximal activity (AC50) is 22.4 µM [rising, single point].

In the case of `CCc1cc2c(=O)[nH]c(-c3ccccn3)nc2s1`, the AC50 was 4.47 µM [rising, full curve, poor fit] under setting [2] and 5.01 µM [rising, full curve] under setting [1].

Take `CCNC(=S)N(CCc1c(C)[nH]c2ccc(C)cc12)Cc1cc(OC)c(OC)c(OC)c1`: the AC50 is 2.82 µM [rising, full curve, poor fit] under setting [2] and 8.91 µM [rising, partial curve] under setting [1].

For the molecule `Cc1nc2ccc(S(=O)(=O)N(C)CC(=O)N3CCc4ccccc4C3)cc2s1`, the AC50 runs as follows: under setting [2], 5.62 µM [rising, partial curve]; under setting [1], 12.6 µM [rising, single point].

As for `CCOn1c(=O)c(-c2cccc3ccccc23)[n+]([O-])c2ccccc21`, under setting [1], the AC50 was 5.62 µM [rising, single point].

For `CCOC(=O)c1c(C)oc2nc(C)nc(N(CC(C)C)CC(C)C)c12`, the AC50 by setting is: under setting [2], 31.6 µM [falling, partial curve]; under setting [1], 22.4 µM [falling, partial curve, poor fit].

Regarding `CCC1(c2ccccc2)NC(=O)N(Cc2cccc([N+](=O)[O-])c2)C1=O` (configuration not stated), the concentration at half-maximal activity (AC50) under setting [2] was 0.01 µM [falling, full curve, poor fit].

Turning to `O=C(c1ccccc1)c1cccc(NC(=O)c2ccco2)c1`, the half-maximal activity concentration (AC50) under setting [2] was 8.91 µM [rising, partial curve].

Turning to `CC1=NN(c2ccccc2)C(=O)/C1=C\c1cn(C)c2ccccc12`, the AC50 under setting [1] was 2.24 µM [rising, partial curve, poor fit].

Take `COc1ccc2[nH]c(C)c(CCN(Cc3cccs3)C(=S)Nc3ccc(F)cc3)c2c1`: the AC50 under setting [1] is 12.6 µM [rising, partial curve].

`Cc1ccc(C(=O)NCC(=O)OCC(=O)N2CCCc3ccccc32)cc1`: the half-maximal activity concentration (AC50) under setting [2] was 11.2 µM [rising, partial curve].

`COc1ccc(NC(=S)Nc2ccc(C)c(S(=O)(=O)N3CCCCC3)c2)cc1`: the AC50 is 14.1 µM [rising, single point] under setting [2] and 17.8 µM [rising, partial curve] under setting [1].

As for `CCCCN(C)S(=O)(=O)c1cc(Br)cc2c1N(C(=O)C1CC1)CC2`, the AC50 under setting [1] is 17.8 µM [rising, single point].

Take `O=C(c1ccc(Cn2c(=O)[nH]c3ccccc3c2=O)cc1)N1CCN(c2ccc(F)cc2)CC1`: under setting [1], the half-maximal activity concentration (AC50) is 35.5 µM [rising, single point].

`COc1ccc(CCNC(=O)Cn2c(=O)cc(C(F)(F)F)c3c(C)nn(C)c32)cc1OC`: under setting [1], the AC50 is 15.8 µM [rising, partial curve, poor fit].

For `CCOc1ccc(NC(=S)NC(C)CCc2ccccc2)cc1` (configuration not stated), the AC50 under setting [1] is 0.501 µM [rising, single point].

For the molecule `COc1ccc(-c2noc(N(C)CC(=O)Nc3cccc(C(F)(F)F)c3)n2)cc1`, the AC50 is 35.5 µM [falling, single point] under setting [2] and 35.5 µM [falling, single point] under setting [1].

Turning to `CC(C)Cn1c(N)c(C(=O)COC(=O)c2cc(F)cc(F)c2)c(=O)n(C)c1=O`, under setting [1], the AC50 is 0.891 µM [rising, full curve, poor fit].

As to `Cc1cccc(C)c1OCC(=O)N/N=C/c1ccncc1`, the AC50 under setting [1] was 5.62 µM [rising, partial curve, poor fit].

For `Cc1ccc(C)c(CSC2=NC(C)(C)Nc3ccccc32)c1`, the half-maximal activity concentration (AC50) is, setting by setting: under setting [2], 12.6 µM [falling, partial curve]; under setting [1], 10 µM [falling, partial curve].

On to `Cc1cc2c(=O)n(Cc3ccco3)c(SCC(=O)N3CCCc4ccccc43)nc2s1`, for which the AC50 under setting [1] is 35.5 µM [rising, single point].

Regarding `CC(=O)c1cccc(NC(=O)CSc2nnc3ccc(-c4ccc(Cl)cc4)nn23)c1`, the AC50 under setting [1] was 0.355 µM [rising, full curve, poor fit].

As for `CN(C)c1ccc(/C=N\NC(=O)c2ccc(Cn3cc(Cl)cn3)cc2)cc1`, the half-maximal activity concentration (AC50) reads like this: under setting [2], 11.2 µM [rising, single point]; under setting [1], 12.6 µM [rising, single point].

As to `COc1ccc(CNC(=O)c2cnn3c(C(F)F)cc(C)nc23)cc1OC`, the AC50 under setting [1] is 12.6 µM [rising, partial curve].

For the molecule `Cc1ccc(Cl)cc1NC(=O)c1sc2nc(-c3ccccc3)cn2c1C`, the concentration at half-maximal activity (AC50) under setting [2] was 0.0158 µM [rising, full curve, poor fit].

As to `C=CCOc1ccc(CNCCO)cc1OCC`, the concentration at half-maximal activity (AC50) is, setting by setting: under setting [2], 35.5 µM [falling, single point]; under setting [1], 35.5 µM [falling, single point].

As to `CC(=O)c1ccc(N2CCN(C(=O)Nc3ccc(Cl)cc3)CC2)cc1`, the AC50 under setting [1] was 0.00447 µM [falling, full curve, poor fit].

As to `C#CCn1c(S(=O)(=O)Cc2ccc(C)cc2)nc(-c2ccccc2)c1-c1ccccc1`, under setting [2], the half-maximal activity concentration (AC50) was 3.55 µM [falling, full curve, poor fit].

`NC(=O)CSc1nc(N)c2c3c(sc2n1)CCCCC3`: the half-maximal activity concentration (AC50) under setting [1] is 14.1 µM [rising, single point].

In the case of `COc1ccc(-c2nc3scc(CCNS(=O)(=O)c4cc(F)ccc4OC)n3n2)cc1OC`, under setting [2], the AC50 is 0.02 µM [falling, full curve, poor fit].

As for `CCOc1cccc(-c2nnc3n2N=C(c2cc(OC)ccc2OC)CS3)c1`, the concentration at half-maximal activity (AC50) under setting [1] was 2.82 µM [rising, partial curve].

Consider `N#Cc1nc(-c2cccs2)oc1NCc1ccc2c(c1)OCO2`, for which the AC50 under setting [1] is 20 µM [rising, single point].

Consider `c1ccc2c(c1)ncn2CCC1CCCCC1`, for which the AC50 under setting [1] was 15.8 µM [rising, single point].

As to `Cc1noc(C)c1CSc1nc2[nH]ncc2c(=O)n1-c1ccccc1`, the AC50 under setting [2] is 7.08 µM [falling, full curve, poor fit].

Turning to `CC(=O)N1N=C(C)CC1c1ccc(O)cc1` (configuration not stated), under setting [1], the half-maximal activity concentration (AC50) was 3.16 µM [rising, full curve, poor fit].

With `Cc1oc(C(=O)O)cc1COc1cccc2cccnc12`, the AC50 under setting [1] is 22.4 µM [rising, partial curve, poor fit].

With `CCCCNc1nnc(SCC(=O)N2CCN(S(=O)(=O)c3ccc4ccccc4c3)CC2)s1`, the concentration at half-maximal activity (AC50) under setting [1] was 12.6 µM [rising, single point].

With `COc1cc2ncnc(Nc3cccc(Cl)c3)c2cc1OC`, the AC50 runs as follows: under setting [2], 6.31 µM [falling, partial curve]; under setting [1], 11.2 µM [falling, partial curve].

In the case of `Cc1c(NS(=O)(=O)c2ccc(N(C)C3CCCCC3)c([N+](=O)[O-])c2)c(=O)n(-c2ccccc2)n1C`, the half-maximal activity concentration (AC50) is, setting by setting: under setting [2], 31.6 µM [rising, single point]; under setting [1], 35.5 µM [rising, single point].

On to `Cc1cccc(C)c1OCC(=O)Nc1cccc(-c2nnc(-c3ccccc3)o2)c1`, for which, under setting [1], the half-maximal activity concentration (AC50) was 15.8 µM [rising, single point].

For the molecule `Cc1ccc(N2CC(c3nc4ccccc4[nH]3)CC2=O)c(C)c1` (configuration not stated), the half-maximal activity concentration (AC50) under setting [1] is 35.5 µM [rising, single point].

As for `CSCC(=O)Nc1nc(-c2ccc3c(c2)OCCO3)cs1`, the concentration at half-maximal activity (AC50) under setting [2] was 1.12 µM [rising, partial curve, poor fit].
